The supplement of paper PMC11006884
What follows is the remainder of the data, with few or none of the targets with a hit. Single values of this set are uncertain. The list shows a part of the results, in another mix than the full data.

Protein sequences, listed by entry. Tags and fused reporters are not part of them. Lines headed by an entry give the natural chain unless they say otherwise; changes in a name come on top.
UniProt Q5HYI8: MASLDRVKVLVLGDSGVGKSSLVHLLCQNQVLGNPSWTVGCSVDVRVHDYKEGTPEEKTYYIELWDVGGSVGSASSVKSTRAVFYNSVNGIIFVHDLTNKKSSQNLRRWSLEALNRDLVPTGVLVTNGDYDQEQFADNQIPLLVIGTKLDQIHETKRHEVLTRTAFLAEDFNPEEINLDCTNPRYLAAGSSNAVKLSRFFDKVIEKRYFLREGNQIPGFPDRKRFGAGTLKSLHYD
UniProt Q5PRF9: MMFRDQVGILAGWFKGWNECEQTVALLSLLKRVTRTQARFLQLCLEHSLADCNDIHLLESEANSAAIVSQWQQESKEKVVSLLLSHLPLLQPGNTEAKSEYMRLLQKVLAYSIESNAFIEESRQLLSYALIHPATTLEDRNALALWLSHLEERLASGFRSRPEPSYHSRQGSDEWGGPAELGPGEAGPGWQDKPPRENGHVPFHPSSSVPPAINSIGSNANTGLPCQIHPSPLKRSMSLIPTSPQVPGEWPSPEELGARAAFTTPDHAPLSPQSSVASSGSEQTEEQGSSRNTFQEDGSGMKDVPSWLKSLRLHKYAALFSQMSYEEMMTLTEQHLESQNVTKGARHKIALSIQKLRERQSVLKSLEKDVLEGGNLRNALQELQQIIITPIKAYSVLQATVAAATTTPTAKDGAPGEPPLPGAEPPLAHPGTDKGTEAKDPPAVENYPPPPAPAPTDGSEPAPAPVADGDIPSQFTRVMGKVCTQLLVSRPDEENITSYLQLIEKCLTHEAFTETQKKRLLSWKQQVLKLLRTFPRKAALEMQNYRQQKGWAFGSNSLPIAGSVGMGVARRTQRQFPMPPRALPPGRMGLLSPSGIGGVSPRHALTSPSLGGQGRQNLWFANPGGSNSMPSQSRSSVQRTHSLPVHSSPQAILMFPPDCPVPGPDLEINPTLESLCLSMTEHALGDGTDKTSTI
UniProt Q6PD74: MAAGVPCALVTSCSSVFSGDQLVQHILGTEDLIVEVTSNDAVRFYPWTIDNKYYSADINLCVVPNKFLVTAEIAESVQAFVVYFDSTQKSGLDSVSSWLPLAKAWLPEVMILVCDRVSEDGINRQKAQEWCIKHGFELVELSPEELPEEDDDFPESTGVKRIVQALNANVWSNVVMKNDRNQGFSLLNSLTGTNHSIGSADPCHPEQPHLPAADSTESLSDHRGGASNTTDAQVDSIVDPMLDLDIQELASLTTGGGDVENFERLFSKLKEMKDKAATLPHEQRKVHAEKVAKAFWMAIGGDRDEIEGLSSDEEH
UniProt Q6NZ36: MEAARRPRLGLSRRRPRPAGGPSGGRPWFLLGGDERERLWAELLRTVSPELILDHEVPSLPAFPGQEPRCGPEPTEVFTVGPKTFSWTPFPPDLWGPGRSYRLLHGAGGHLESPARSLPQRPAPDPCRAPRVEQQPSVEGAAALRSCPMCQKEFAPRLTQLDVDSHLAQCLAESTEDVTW
UniProt Q6KC79: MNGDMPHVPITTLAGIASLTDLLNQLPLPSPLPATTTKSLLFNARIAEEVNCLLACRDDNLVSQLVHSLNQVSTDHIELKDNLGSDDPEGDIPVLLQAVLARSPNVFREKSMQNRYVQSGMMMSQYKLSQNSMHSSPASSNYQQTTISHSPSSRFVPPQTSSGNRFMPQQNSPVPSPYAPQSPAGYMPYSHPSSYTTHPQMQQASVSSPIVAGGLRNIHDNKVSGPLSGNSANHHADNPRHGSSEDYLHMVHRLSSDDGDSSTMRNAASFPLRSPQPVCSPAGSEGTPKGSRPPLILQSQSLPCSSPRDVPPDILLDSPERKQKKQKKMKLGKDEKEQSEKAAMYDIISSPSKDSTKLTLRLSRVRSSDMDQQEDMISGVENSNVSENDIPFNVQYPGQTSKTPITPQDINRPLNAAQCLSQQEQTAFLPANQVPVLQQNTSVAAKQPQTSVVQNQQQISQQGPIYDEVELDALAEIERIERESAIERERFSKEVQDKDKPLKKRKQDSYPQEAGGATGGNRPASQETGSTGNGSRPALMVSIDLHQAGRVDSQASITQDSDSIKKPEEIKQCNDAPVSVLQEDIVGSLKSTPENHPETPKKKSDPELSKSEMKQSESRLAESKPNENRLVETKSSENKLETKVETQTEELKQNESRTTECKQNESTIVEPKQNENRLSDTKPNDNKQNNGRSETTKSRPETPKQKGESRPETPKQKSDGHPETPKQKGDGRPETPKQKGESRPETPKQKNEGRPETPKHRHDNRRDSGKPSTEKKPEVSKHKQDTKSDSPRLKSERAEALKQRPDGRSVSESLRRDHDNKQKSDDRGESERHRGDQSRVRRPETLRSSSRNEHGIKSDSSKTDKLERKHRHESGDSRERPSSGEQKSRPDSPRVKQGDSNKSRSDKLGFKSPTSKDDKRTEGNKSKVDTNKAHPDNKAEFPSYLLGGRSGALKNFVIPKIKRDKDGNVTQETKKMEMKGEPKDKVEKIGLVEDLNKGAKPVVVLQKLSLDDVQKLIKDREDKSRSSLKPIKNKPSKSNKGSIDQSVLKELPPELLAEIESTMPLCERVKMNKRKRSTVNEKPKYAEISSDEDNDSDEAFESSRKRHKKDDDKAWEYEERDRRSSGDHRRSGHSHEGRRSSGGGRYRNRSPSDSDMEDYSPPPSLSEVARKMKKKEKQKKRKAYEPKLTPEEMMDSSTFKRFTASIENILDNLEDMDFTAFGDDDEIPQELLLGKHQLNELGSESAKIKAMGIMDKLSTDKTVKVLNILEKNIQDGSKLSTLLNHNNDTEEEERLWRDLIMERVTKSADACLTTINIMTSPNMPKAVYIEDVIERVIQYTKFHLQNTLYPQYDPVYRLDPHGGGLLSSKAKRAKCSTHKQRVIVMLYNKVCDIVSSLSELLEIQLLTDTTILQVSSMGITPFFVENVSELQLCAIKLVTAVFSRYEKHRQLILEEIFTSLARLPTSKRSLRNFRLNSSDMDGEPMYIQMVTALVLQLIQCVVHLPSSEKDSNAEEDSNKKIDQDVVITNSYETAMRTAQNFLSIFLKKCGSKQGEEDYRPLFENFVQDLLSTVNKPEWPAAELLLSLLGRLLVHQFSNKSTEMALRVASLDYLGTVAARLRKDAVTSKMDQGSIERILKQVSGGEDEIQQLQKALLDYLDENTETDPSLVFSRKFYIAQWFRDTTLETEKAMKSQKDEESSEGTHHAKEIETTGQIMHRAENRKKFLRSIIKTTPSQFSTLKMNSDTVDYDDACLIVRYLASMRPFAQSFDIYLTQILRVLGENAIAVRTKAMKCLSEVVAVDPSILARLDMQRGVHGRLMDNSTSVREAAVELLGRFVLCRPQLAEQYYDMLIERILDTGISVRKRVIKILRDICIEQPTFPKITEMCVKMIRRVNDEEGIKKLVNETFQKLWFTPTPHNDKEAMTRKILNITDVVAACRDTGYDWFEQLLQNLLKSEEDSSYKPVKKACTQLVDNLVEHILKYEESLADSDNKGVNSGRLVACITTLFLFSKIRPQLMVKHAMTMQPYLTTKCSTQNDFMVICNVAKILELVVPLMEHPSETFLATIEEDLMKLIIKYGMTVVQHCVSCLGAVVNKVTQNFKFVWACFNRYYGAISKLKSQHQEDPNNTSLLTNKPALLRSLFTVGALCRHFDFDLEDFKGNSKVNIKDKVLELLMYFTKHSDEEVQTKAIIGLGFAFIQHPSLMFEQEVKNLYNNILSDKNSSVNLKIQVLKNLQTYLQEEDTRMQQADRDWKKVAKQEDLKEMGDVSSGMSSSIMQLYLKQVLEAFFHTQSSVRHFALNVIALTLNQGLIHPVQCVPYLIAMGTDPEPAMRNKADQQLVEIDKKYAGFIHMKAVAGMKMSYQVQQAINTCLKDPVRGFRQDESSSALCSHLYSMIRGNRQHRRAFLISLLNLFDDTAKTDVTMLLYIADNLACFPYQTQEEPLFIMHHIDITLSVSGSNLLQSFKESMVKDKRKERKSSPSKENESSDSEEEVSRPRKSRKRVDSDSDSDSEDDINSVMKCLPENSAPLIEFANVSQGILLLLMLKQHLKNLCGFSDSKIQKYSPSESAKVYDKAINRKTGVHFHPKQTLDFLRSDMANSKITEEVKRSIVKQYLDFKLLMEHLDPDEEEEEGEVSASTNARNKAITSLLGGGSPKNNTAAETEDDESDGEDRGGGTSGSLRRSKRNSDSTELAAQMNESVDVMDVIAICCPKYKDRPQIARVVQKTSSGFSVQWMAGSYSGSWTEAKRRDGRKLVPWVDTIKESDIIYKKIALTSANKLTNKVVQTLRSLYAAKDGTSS
UniProt Q69YN2: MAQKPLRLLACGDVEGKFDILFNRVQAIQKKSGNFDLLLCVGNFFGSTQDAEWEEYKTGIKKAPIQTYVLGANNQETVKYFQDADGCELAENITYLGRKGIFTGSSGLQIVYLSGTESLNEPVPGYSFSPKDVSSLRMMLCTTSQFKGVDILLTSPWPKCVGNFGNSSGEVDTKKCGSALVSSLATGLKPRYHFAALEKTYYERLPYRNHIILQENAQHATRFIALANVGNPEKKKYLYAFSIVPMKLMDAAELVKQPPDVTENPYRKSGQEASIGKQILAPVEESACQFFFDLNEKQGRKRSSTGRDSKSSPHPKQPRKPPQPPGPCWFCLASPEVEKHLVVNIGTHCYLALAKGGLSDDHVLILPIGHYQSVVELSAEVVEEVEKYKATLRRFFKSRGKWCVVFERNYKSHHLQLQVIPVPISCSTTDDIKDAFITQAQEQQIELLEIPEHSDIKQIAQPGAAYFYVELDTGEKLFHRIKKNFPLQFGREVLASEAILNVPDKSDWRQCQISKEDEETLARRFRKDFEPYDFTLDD
UniProt Q68EM7: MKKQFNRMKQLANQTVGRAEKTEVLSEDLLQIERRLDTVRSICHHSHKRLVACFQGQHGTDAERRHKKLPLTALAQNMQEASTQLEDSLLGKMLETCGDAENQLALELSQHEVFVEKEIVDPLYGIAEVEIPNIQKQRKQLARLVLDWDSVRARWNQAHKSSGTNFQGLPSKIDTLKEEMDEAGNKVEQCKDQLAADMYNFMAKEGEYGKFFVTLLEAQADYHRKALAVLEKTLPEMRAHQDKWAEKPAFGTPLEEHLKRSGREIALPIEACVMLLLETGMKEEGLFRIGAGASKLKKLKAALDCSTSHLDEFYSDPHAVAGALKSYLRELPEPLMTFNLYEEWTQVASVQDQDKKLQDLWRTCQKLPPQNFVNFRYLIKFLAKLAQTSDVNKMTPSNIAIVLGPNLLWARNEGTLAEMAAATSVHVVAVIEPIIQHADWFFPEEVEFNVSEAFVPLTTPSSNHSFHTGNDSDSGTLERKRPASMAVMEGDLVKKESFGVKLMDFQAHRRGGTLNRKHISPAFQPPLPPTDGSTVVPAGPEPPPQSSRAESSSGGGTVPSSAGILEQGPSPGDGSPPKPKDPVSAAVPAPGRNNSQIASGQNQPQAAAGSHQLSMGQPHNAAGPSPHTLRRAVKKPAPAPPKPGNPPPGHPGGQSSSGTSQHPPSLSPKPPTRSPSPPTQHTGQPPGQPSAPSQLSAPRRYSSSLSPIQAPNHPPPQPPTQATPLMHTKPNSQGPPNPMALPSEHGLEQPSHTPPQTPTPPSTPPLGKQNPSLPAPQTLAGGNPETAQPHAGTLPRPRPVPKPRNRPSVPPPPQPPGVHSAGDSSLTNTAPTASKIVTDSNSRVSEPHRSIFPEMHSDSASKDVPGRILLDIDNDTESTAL
UniProt Q6P996: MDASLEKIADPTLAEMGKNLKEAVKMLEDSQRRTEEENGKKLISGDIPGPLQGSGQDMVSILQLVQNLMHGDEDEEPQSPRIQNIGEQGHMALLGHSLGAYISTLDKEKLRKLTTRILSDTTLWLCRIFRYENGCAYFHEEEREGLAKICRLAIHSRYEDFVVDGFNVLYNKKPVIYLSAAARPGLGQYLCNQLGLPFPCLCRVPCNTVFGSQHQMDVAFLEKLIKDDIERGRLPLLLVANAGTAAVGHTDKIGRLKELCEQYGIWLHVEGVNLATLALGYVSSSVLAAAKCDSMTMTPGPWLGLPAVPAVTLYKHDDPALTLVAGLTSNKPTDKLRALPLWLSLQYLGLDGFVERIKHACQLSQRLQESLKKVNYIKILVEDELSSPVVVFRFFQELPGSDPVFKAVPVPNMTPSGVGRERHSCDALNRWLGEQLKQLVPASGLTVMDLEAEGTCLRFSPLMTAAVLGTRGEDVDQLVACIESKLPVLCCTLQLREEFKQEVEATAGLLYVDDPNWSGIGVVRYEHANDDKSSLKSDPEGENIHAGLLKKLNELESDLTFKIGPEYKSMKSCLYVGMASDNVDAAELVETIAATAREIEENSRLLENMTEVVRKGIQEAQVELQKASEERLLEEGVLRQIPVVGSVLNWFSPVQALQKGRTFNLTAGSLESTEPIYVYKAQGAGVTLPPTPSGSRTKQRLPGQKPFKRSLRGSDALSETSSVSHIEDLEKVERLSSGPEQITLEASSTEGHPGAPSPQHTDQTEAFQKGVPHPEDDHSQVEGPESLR

These targets were tested with COC(=O)/C=C/c1ccccc1 [methyl cinnamate] (assay: log2 ratio of iodoacetamide-alkyne labeling of the cysteine site, DMSO over compound (competition); higher = stronger covalent engagement of the cysteine by the compound, active = 1 or more). Settings: 500 µM; treatment time 1 h; system: HEK293T cell lysate.
Summary of the method: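 Reporter intensities give each cysteine's log2 competition ratio as the mean of control channels over the mean of compound channels. The samples were HEK293T lysate (2 mg/mL) given vehicle or electrophile (500 µM, 1 h, ambient temperature), then iodoacetamide alkyne (1 h), followed by click coupling to sCIP-TMT reagents, pooling, trypsin digestion overnight at 37 °C, streptavidin enrichment, acid elution, Orbitrap Eclipse LC-MS/MS with FAIMS and FragPipe quantification. Duplicate channels and three replicates were run, and cysteines quantified in only one replicate were discarded.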

log2 ratio of iodoacetamide-alkyne labeling, inactive:
UniProt Q6NSI4_C60 0.138
UniProt Q6PJG6_C720 -0.0205
UniProt Q6PJG6_C228 0.0899
UniProt Q6IQ49_C415 0.426
PITRM1 C313 (UniProt Q5JRX3) 0.317
DNAJC14 C537 (UniProt Q6Y2X3) 0.477
PDE12 C119 (UniProt Q6L8Q7) 0.382
RABL3 C180 (UniProt Q5HYI8) -0.0544
SPECC1 C493 (UniProt Q5M775) -0.0514
THADA C283 (UniProt Q6YHU6) 0.419
SAMD4B C226 (UniProt Q5PRF9) -0.00048
WDR73 C352 (UniProt Q6P4I2) -0.453
NHSL1 C729 (UniProt Q5SYE7) 0.404
INTS3 C866 (UniProt Q68E01) -0.027
DOCK11 C409 (UniProt Q5JSL3) -0.429
UniProt Q6PIY7_C167 -0.0863
TAF2 C1093 (UniProt Q6P1X5) 0.0841
ATAD2 C1246 (UniProt Q6PL18) 0.184
UBN2 C966 (UniProt Q6ZU65) 0.295
AAGAB C203 (UniProt Q6PD74) 0.21
CIAPIN1 C237 (UniProt Q6FI81) 0.374
MIA3 C1513 (UniProt Q5JRA6) 0.636
LIN28B C201 (UniProt Q6ZN17) 0.283
FAAP20 C70 (UniProt Q6NZ36) 0.0933
NIPBL C573 (UniProt Q6KC79) 0.164
CEP170 C967 (UniProt Q5SW79) 0.367
UniProt Q6P9B6_C13 0.605
RICTOR C1012 (UniProt Q6R327) 0.76
NUP188 C95 (UniProt Q5SRE5) 0.0875
ZC3H14 C261 (UniProt Q6PJT7) 0.074
CWF19L1 C288 (UniProt Q69YN2) 0.185
ARHGAP17 C53 (UniProt Q68EM7) 0.362
DARS2 C371 (UniProt Q6PI48) 0.237
CWF19L1 C176 (UniProt Q69YN2) -0.191
PDXDC1 C573 (UniProt Q6P996) -0.137
NADSYN1 C309 (UniProt Q6IA69) -0.0871
UniProt Q69YN4_C353 -0.0532
CDKAL1 C538 (UniProt Q5VV42) 0.24

Fetched one by one from above (2):
log2 ratio of iodoacetamide-alkyne labeling, inactive:
UniProt Q6IQ49_C415 0.426
DNAJC14 C537 (UniProt Q6Y2X3) 0.477
